Results taken from patent publication EP0203736A1, “Antiviral compounds” (THE WELLCOME FOUNDATION LIMITED, priority 1985, dated 1986).
For at least one compound, name, drawing or mass did not settle the structure.

Test system: herpes simplex
Test: In vivo potency against herpes simplex infection in intra-cerebrally infected mice (survival times, MRST)
Design: species or system CD 1 mice
Settings: summary statement, particularly in comparison with DHBG
Experimental: The compounds of Examples 1 and 2 were tested in vivo to determine their potency in vivo against herpes simplex infections. The compounds were tested in comparison with the 6-deoxy analogue of the compound of Example 1, namely 9-(3,4-dihydroxybutyI) guanine (DHBG). The following is description of the testing.
The compounds were tested in CD 1 mice infected with herpes simplex ICI cell culture stock having a titre of 1 x 10^5 plaque forming units (pfu)/ml and administered to the mice in a dose of 0.025ml by the intra-cerebral route.
The test compounds were prepared as aqueous suspensions or solutions, each compound being administered at a dose of 50 mg/kg in a volume of 0.1 ml, by either the oral or sub-cutaneous (s.c.) route, to a treatment group of animals. Each group contained 10 animals for each compound and for each route of administration.
Treatment of the animals commenced 2-3 hours after infection and continued twice daily for 4.5 days.
A group of 13 animals which were infected but untreated served as controls.
Survival times for the test animals were recorded over 14 days and expressed as mean reciprocol survival times (MRST).
The results shown in the following table were obtained in which the figures in the column headed "Survival Times" indicate the number of animals that died on the day indicated in parentheses.

Nc1ncc2ncn(CCC(O)CO)c2n1 (stereo not shown) [Example 1, 2-Amino-9-(3,4-dihydroxybutyl)-9H-purine]
antiviral effect in vivo against HSV: potent antiviral effect
